Where “and” joins values, the source holds several entries; their conditions need not be identical. Equal values may be shown once. ± gives the standard deviation of the averaged measurements. In all, about 3,800 compounds were measured (“cell shape (eccentricity) Z-score vs DMSO control”: median about 1.1, lowest 2% from about -4.7 on). The list shows a part of the results.
system: human monocyte-derived macrophages (M0); test: cell shape (eccentricity) Z-score vs DMSO control; higher = more elongated, M2-like morphology; conditions: 20 µM; 24 h; macrophage state: M0 (M-CSF)
Protocol: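 Primary human monocyte-derived macrophages (M-CSF differentiated, pooled from 4 donors, 5000 cells/well in 384-well plates) were treated with each compound at 20 uM for 24 h, then fixed and stained with phalloidin/DAPI and imaged on an Opera Phenix (6 fields, about 1000 cells/well). Cell eccentricity was measured with CellProfiler, and a Z-score (t-test) was computed against 4 DMSO control wells in the same row. Negative values mean round (M1-like) cells and positive values mean elongated (M2-like) cells; the paper's hit cutoffs are Z <= -4 (M1) and Z >= 6 (M2). Scale: negative = round, M1-like.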

SMILES | cell shape (Z-score)
Cn1c(Nc2ccc(C(F)(F)F)cc2)nc2cc(Oc3ccnc(-c4ncc(C(F)(F)F)[nH]4)c3)ccc21 | 9.98
CN(CC[C@@H](Oc1ccc(-c2ccccc2)cc1)c1ccc(F)cc1)CC(=O)O | 1.21
COCCn1c2c([n+](Cc3cnccn3)c1C)C(=O)c1ccccc1C2=O | 1.6
O=C(O)c1ccccc1S | -0.83
O=C(O)CC/C=C\CC[C@@H]1[C@@H](N2CCCCC2)[C@@H](O)C[C@@H]1OCc1ccc(-c2ccccc2)cc1 | 2.7
Fc1ccc(C2CCNCC2COc2ccc3c(c2)OCO3)cc1 (stereo not given) | -0.128
COc1ccc(/C=C/C(=O)O[C@@H]2[C@@H](OC(=O)/C=C/c3ccc(OC)cc3)[C@H](C)O[C@@H](O[C@H]3[C@@H]4C=CO[C@@H](O[C@@H]5O[C@H](CO)[C@@H](O)[C@H](O)[C@H]5O)[C@@H]4[C@@]4(CO)O[C@@H]34)[C@@H]2OC(C)=O)cc1 | 1.82
c1coc(CNc2ncnc3[nH]cnc23)c1 | -0.974
CC(C)(C)c1ccc(C(O)CCCN2CCC(C(O)(c3ccccc3)c3ccccc3)CC2)cc1 (stereo not given) | -0.389
CCC(C)C(O)C(C)(O)/C=C/C1=CC2=C(Cl)C(=O)C(C)(O)C(OC(C)=O)C2CO1 (stereo not given) | 2.13
CC1(C)C[C@H](O)C[C@@]2(C)[C@H]1[C@H](O)C=C1COC(=O)[C@@]12O | -2.46
CCN(CC)CCOc1ccc(/C(=C(\Cl)c2ccccc2)c2ccccc2)cc1 | -3.67
CC(=O)O[C@]1(C(C)=O)CCC2C3C=C(C)C4=CC(=O)CCC4(C)C3CCC21C (stereo not given in full) | 2.1
COC(=O)c1cccc2nc3c(C(C)O)cccc3nc12 (stereo not given) | -4.26
CSc1nc2cc(Cl)c(Oc3cccc(Cl)c3Cl)cc2[nH]1 | -0.744
O=C(CCNNC(=O)c1ccncc1)NCc1ccccc1 | 0.908
C=C1C(=O)O[C@@H]2C[C@@]3(C)[C@@H](O)C[C@@H](O)C(=C)[C@@H]3C[C@H]12 | -1.62
Nc1ccc(S(=O)(=O)Nc2ccccn2)cc1 | 1.68
CC1=C[C@H](O)[C@H]2C(C)(C)CCC[C@]2(C)[C@@]1(O)CO | 0.301
CCCn1c(=O)c(C)cn2nc(N)nc12 | 3.53
NS(=O)(=O)c1cc2c(cc1Cl)NCNS2(=O)=O | 3.53
O=C1c2cccc(O)c2C(=O)c2c(O)cccc21 | 3.05
CCCCCCC/C=C/C(=O)CCc1ccc(O)c(OC)c1 | -2.26

Looked up one by one from the entries so far, two records:
SMILES | cell shape (Z-score)
CCCn1c(=O)c(C)cn2nc(N)nc12 | 3.53
c1coc(CNc2ncnc3[nH]cnc23)c1 | -0.974

Continued.

SMILES | cell shape (Z-score)
O=c1cc(-c2ccc(O[C@@H]3O[C@H](CO)[C@@H](O)[C@H](O)[C@H]3O)cc2)oc2cc(O)cc(O)c12 | 4.17
Cc1cc(O)c2c(c1)C(=O)c1cc(OC3OC(COC(=O)CC(=O)O)C(O)C(O)C3O)cc(O)c1C2=O (stereo not given) | 4.04
CC(C)OC(=O)C(C)(C)Oc1ccc(C(=O)c2ccc(Cl)cc2)cc1 | 0.0442
CC(C)(Sc1ccc(CCN(CCCCC2CCCCC2)C(=O)NC2CCCCC2)cc1)C(=O)O | -1
C[C@H](CO)N1C[C@H](C)[C@H](CN(C)Cc2ccc3c(c2)OCCO3)OCc2cn(nn2)CCCC1=O | 4.71
COc1ccc([C@H]2COc3c(ccc(O)c3OC)C2)c(OC)c1O | 3.03
CC1CC(=O)C2=C(CCC34OC23C(=O)c2cccc(O)c2C4O)C1 (stereo not given) | 1.22
CCc1cccc2c3c([nH]c12)C(CC)(CC(=O)O)OCC3 (stereo not given) | 1.36
O=C(O)c1ccccc1-c1c2cc(I)c(=O)c(I)c-2oc2c(I)c(O)c(I)cc12 | 0.806
Clc1ccccc1CNCC1CCC(CNCc2ccccc2Cl)CC1 (stereo not given) | 1.02
O=C(CN1CCN(Cc2ccc3c(c2)OCO3)CC1)N1c2ccccc2Sc2ccccc21 | -1.37
COC(=O)CCC(=O)CN | 1.27
Cc1cc(O)cc(C)c1Cl | 0.653
CO[C@H]1/C=C/O[C@@]2(C)Oc3c(C)c(O)c4c(O)c(c5c(nc6cc(C)ccn65)c4c3C2=O)NC(=O)/C(C)=C\C=C\[C@H](C)[C@H](O)[C@@H](C)C(O)[C@@H](C)[C@H](OC(C)=O)[C@@H]1C (stereo not given in full) | -2.16
COC(=O)c1ccc([C@H]2c3[nH]c4ccccc4c3C[C@H](C(=O)OC)N2C(=O)CCl)cc1 | -2.13
Clc1ccc2c(c1)CCc1cccnc1C2=C1CCNCC1 | -2.88
COc1cc(C=O)c([N+](=O)[O-])cc1OC | 2.74
Oc1cccc(O)c1 | 5.8
COc1cc(/C=C/C(=O)OC2C(COC(=O)c3cc(OC)c(OC)c(OC)c3)OC(OC3(CO)OC(CO)C(O)C3O)C(O)C2O)cc(OC)c1OC (stereo not given) | 0.742
CCCOc1ccc2nc(NC(=O)OC)sc2c1 | -3.57
Cc1ccccc1N1CCN(S(=O)(=O)CC23CCC(C[C@@H]2NC(=O)[C@@H](N)CCS(C)(=O)=O)C3(C)C)CC1 (stereo not given in full) | 2.02
CCCCN(CCCC)CCCC.Nc1ncnc2c1ncn2C1OC(COP(=O)(O)O)C(O)C1O (stereo not given) | 0.459
COc1c(O)cc2oc(-c3ccc(O)c(O)c3)cc(=O)c2c1O | 1.81

Rewritten field by field: entries from further up
O=C(CN1CCN(Cc2ccc3c(c2)OCO3)CC1)N1c2ccccc2Sc2ccccc21
  cell shape (Z-score): -1.37
Cc1cc(O)cc(C)c1Cl
  cell shape (Z-score): 0.653
CO[C@H]1/C=C/O[C@@]2(C)Oc3c(C)c(O)c4c(O)c(c5c(nc6cc(C)ccn65)c4c3C2=O)NC(=O)/C(C)=C\C=C\[C@H](C)[C@H](O)[C@@H](C)C(O)[C@@H](C)[C@H](OC(C)=O)[C@@H]1C (stereo not given in full)
  cell shape (Z-score): -2.16
COC(=O)c1ccc([C@H]2c3[nH]c4ccccc4c3C[C@H](C(=O)OC)N2C(=O)CCl)cc1
  cell shape (Z-score): -2.13

Next part

SMILES | cell shape (Z-score)
Cc1c(O)c(=O)n(-c2ccccc2)n1C | 1.53
Nc1cc(-c2ccncc2)c[nH]c1=O | 0.0533
COc1c(OC/C=C(\C)CC2C=C(C)C(=O)O2)ccc2ccc(=O)oc12 (stereo not given) | -1.43
CS(=O)(=O)Nc1c(O)ccc2c1CCCC2C1=NCCN1 (stereo not given) | 0.854
COc1ccc2c(c1)OC(C(=O)c1ccccc1)C2=O (stereo not given) | -0.83
C[C@H]1[C@H](C)CC[C@]2(C(=O)O)CC[C@]3(C)C(=CCC4[C@@]5(C)C[C@@H](O)[C@H](O)[C@@](C)(CO)C5CC[C@]43C)[C@H]12 (stereo not given in full) | 2.15
COC(=O)C=Cc1cccc(N(Cc2ccc(-c3ccc(N(C)C)cc3)cc2)C(=O)C2CCCCC2)c1 | -1.18
CC1(C)O[C@@H]2CC3C4C[C@H](F)C5=CC(=O)C=CC5(C)C4C(O)CC3(C)[C@]2(C(=O)CO)O1 (stereo not given in full) | -1.27
CN1CCc2cc(Cl)c(O)cc2[C@@H](c2ccccc2)C1 | 3.71
O=C(NC1CCN(Cc2ccccc2)CC1)c1ccc(I)cc1 | -1.38
CCCc1c(OCCCOc2ccc(OCC(=O)O)cc2)ccc(CC=O)c1O | -1.29
CC(=O)OC(C)(C)/C=C/C(=O)[C@](C)(O)[C@H]1C(O)C[C@@]2(C)[C@@H]3CC=C4[C@@H](C=C(O[C@@H]5O[C@H](CO)[C@@H](O)[C@H](O)[C@H]5O)C(=O)C4(C)C)[C@]3(C)C(=O)C[C@]12C (stereo not given in full) | 0.718
COc1cc(C)c(C(=O)Oc2cc(C)c(C(=O)Oc3cc(C)c(C(=O)NC(C)C(=O)O)c(O)c3)c(O[C@@H]3O[C@H](CO)[C@@H](O)[C@H](O)[C@H]3O)c2)c(OC)c1 (stereo not given in full) | 0.361
CC(=O)O[C@@H]1c2c(ccc3ccc(=O)oc23)O[C@@H]1C(C)(C)OC(=O)C=C(C)C | 3.11
CCCCc1ccc2[nH]c(NC(=O)OC)nc2c1 | -5.71 and -2.34
CC(C)NC[C@@H](O)c1ccc(NS(C)(=O)=O)cc1 | -0.104
CC(C)C(NS(=O)(=O)c1ccc(-c2ccc(Br)cc2)cc1)C(=O)O (stereo not given) | 2.19
CC(C)SC(=N)N | 2.56
CN(C)CCC1(c2ccc(Cl)cc2)Cc2ccccc2C(=O)O1 (stereo not given) | -0.315
NCCCCNS(=O)(=O)c1ccc2c(Cl)cccc2c1 | 2.07
COc1cc(C2OC[C@@H]3[C@@H](c4cc(OC)c(O)c(OC)c4)OC[C@H]23)cc(OC)c1O (stereo not given in full) | 0.11
C=CC(C)(O)CC/C=C(\C)C(=O)OCC1CCC2C(C(=O)O)=COC(OC3OC(CO)C(O)C(O)C3O)C12 (stereo not given) | 1.66 ± 2.1
O=C1NC(=O)C(c2ccccc2[N+](=O)[O-])=C1Nc1ccc(O)c(Cl)c1 | -0.988

SMILES | cell shape (Z-score)
COc1ccc(C2COc3cc(O)ccc3C2)c(O)c1 (stereo not given) | 2.23
COCCNC(=O)COc1ccc(OCCNC[C@@H](O)COc2ccccc2)cc1 | 1.72
COc1ccc(-c2oc3cc(OC)c(OC)c(OC)c3c(=O)c2OC)cc1OC | -1.55
CC(NC(=O)/C=C/C(=O)O)C(=O)NC(C(=O)NC(Cc1c[nH]c2ccccc12)C(=O)O)C(C)c1c[nH]c2ccccc12 (stereo not given) | -2.48
CC1(OC(=O)/C=C/c2ccccc2)CC(O)C2C=COC(OC3OC(CO)C(O)C(O)C3O)C21 (stereo not given) | 0.728
CC1(C)CC[C@]2(C(=O)O[C@@H]3O[C@H](CO[C@@H]4O[C@H](CO[C@@H]5O[C@H](CO)[C@@H](O)[C@H](O)[C@H]5O)[C@@H](O)[C@H](O)[C@H]4O)[C@@H](O)[C@H](O[C@@H]4O[C@H](CO)[C@@H](O)[C@H](O)[C@H]4O)[C@H]3O)CC[C@]3(C)C(=CCC4[C@@]5(C)CC[C@H](O)[C@@](C)(C(=O)O)C5CC[C@]43C)C2C1 (stereo not given in full) | 1.13
O=C(/C=C/c1cccnc1)NCCCCC1CCN(C(=O)c2ccccc2)CC1 | -3
CC1CCN=C(N)S1 (stereo not given) | 2.54
CCN(CC)CCNC(C(=O)OCCC(C)C)c1ccccc1 (stereo not given) | 2.08
c1ccc2[nH]c(-c3cscn3)nc2c1 | 4.06
COC(=O)C1=C(C)NC(C)=C(C(=O)OCCN2CCN(C(c3ccccc3)c3ccccc3)CC2)C1c1cccc([N+](=O)[O-])c1 (stereo not given) | 2.66
COc1cc(COc2cc(N)c(Cl)cc2C(=O)CCC2CCN(CCNS(C)(=O)=O)CC2)cc(OC)c1 | 2.31
CCC/C=C/C=C/C1C[C@@H](O)[C@@H](O)C(=O)[C@H]1CO (stereo not given in full) | -0.556
COC1CC2CCC(C)C(O)(O2)C(=O)C(=O)N2CCCCC2C(=O)OC(C(C)CC2CCC(O)C(OC)C2)CC(=O)C(C)/C=C(\C)C(O)C(OC)C(=O)C(C)CC(C)/C=C/C=C/C=C/1C (stereo not given) | -0.961
O=c1ccc2cc(O)c(O)cc2o1 | 0.316
COC(=O)[C@H](NC(=O)c1cc(-c2ccccc2)nc2ccccc12)c1ccccc1 | 2.65
O=C(NO)c1ccncc1 | 2.25
CC(C(=O)O)c1ccc2c(c1)[nH]c1ccc(Cl)cc12 (stereo not given) | 0.593
O=C(/C=C/C=C/c1ccc2c(c1)OCO2)N1CCCCC1 | 2.45
CN(C)C/C=C/C(=O)Nc1cc2c(Nc3ccc(F)c(Cl)c3)ncnc2cc1O[C@H]1CCOC1 | 0.367
CC(=O)OCC(=O)[C@@]1(O)[C@H](OC(C)=O)CC2C3CCC4=CC(=O)C=C[C@]4(C)[C@@]3(F)[C@@H](O)C[C@@]21C (stereo not given in full) | -3.67
